Measurements published in the supplement of paper PMC5949888.
Most values lie at the floor of the assay. Slopes are relative: functional sequences can read slightly below zero.

These substances were tested on Saccharomyces cerevisiae PS128 hsf1 delta, HSF1(1-493) fusion (assay: growth estimate (transactivation domain function in HSF1 fusion, heat-shock survival) (a.u. (slope of normalised read count over time)); higher = stronger growth at 37°C, i.e. more transactivation activity). Conditions: library: random library.

Q: IYGGGASVRPVEGKRSAAPR was tested. Which growth estimate did it give?
A: < -0.25

Q: IYIFGPAQIRRPGGGSRSTV was tested. Which growth estimate did it give?
A: < -0.25

Q: With IYKRHDSLHMVQNLGRKPRG as the substance, how does the growth estimate read?
A: < -0.25

Q: IYLDGFGYAGRLVVVMPILN was tested. Which growth estimate did it give?
A: < -0.25

Q: IYLRTSDRRFLFTWRVVPAF was tested. Which growth estimate did it give?
A: < -0.25

Q: For IYNPSFQLRDTSRGPWLVLP, which growth estimate is on record?
A: < -0.25

Q: For IYNSFFVRLTVG, which growth estimate is on record?
A: < -0.25

Q: For IYQNEGF, which growth estimate is on record?
A: -0.203

Q: IYR was tested. Which growth estimate did it give?
A: < -0.25

Q: Which growth estimate does the source give for IYSIMNWNAG here?
A: < -0.25

Q: How did the growth estimate turn out when IYSKRLRQVVDTTLTVTSLR was run?
A: < -0.25

Q: With IYSSSGTLIRSAGSYISPQN as the substance, how does the growth estimate read?
A: -0.243

Q: Which growth estimate does the source give for IYVALQGPRLSSGSFKSCYE here?
A: < -0.25

Q: For IYVPGRVEGPVALCGR, which growth estimate is on record?
A: < -0.25

Q: KAAMTSRTVRPDGNVQVPLL was tested. Which growth estimate did it give?
A: < -0.25

Q: With KAASATALSSRGPIVFFEDG as the substance, how does the growth estimate read?
A: < -0.25

Q: Which growth estimate does the source give for KAC here?
A: < -0.25

Q: How did the growth estimate turn out when KADPL was run?
A: < -0.25

Q: KAETFPPE was tested. Which growth estimate did it give?
A: < -0.25

Q: How did the growth estimate turn out when KAGPPNRARRE was run?
A: < -0.25

Q: How did the growth estimate turn out when KAIGAREGSGVKSRIETNLP was run?
A: < -0.25

Q: For KAIHPVGLRLGINHQSQGGS, which growth estimate is on record?
A: < -0.25

Q: How did the growth estimate turn out when KAIRSPQRPVSCRK was run?
A: < -0.25

Q: For KANPRIFQLRKDCLQACCCT, which growth estimate is on record?
A: < -0.25

Q: With KAR as the substance, how does the growth estimate read?
A: < -0.25

Q: With KARHSRLCSFHKDRSLTRRG as the substance, how does the growth estimate read?
A: < -0.25

Q: How did the growth estimate turn out when KARTGFRVAPKAPVRVGYSA was run?
A: < -0.25

Q: How did the growth estimate turn out when KASCCHPAVFARERLRICIM was run?
A: < -0.25

Q: With KASM as the substance, how does the growth estimate read?
A: < -0.25

Q: For KASYNGQRSRPWVQSLYFMV, which growth estimate is on record?
A: < -0.25

Q: For KATQ, which growth estimate is on record?
A: < -0.25

Q: Which growth estimate does the source give for KATRRPAYGLRQCWASTRHV here?
A: < -0.25

Q: For KAVCRDSYVRPSGMSSYLSP, which growth estimate is on record?
A: < -0.25

Q: KAVLARYWPVRQFIRDGQLS was tested. Which growth estimate did it give?
A: < -0.25

Q: KAVLSCRSICRPTGHLSERC was tested. Which growth estimate did it give?
A: < -0.25

Q: With KCCVSHTT as the substance, how does the growth estimate read?
A: < -0.25

Q: KCDHASPAHQG was tested. Which growth estimate did it give?
A: < -0.25

Q: How did the growth estimate turn out when KCGISESYHLR was run?
A: < -0.25

Q: For KCGLGVLPP, which growth estimate is on record?
A: < -0.25

Q: How did the growth estimate turn out when KCKLIGGRSSCSWTKPRCAY was run?
A: < -0.25

Q: With KCKNLKRC as the substance, how does the growth estimate read?
A: -0.219

Q: With KCKTLHCGSQHRFRHGEAPS as the substance, how does the growth estimate read?
A: < -0.25

Q: How did the growth estimate turn out when KCLCNET was run?
A: < -0.25

Q: For KCNL, which growth estimate is on record?
A: < -0.25

Q: Which growth estimate does the source give for KCPTTERKQGGSVASI here?
A: < -0.25

Q: For KCPVCKN, which growth estimate is on record?
A: < -0.25

Q: For KCRYAHPPCSKL, which growth estimate is on record?
A: < -0.25

Q: With KCSLDQPVHENR as the substance, how does the growth estimate read?
A: < -0.25

Q: Which growth estimate does the source give for KCTKGKPEPTSAAGARDSVL here?
A: < -0.25

Q: Which growth estimate does the source give for KCTPTPQKRQVVST here?
A: < -0.25

Q: KDAGCGIVSEQNGPEVTESQ was tested. Which growth estimate did it give?
A: < -0.25

Q: How did the growth estimate turn out when KDFVF was run?
A: < -0.25

Q: With KDPASSYRLWYALDFFGRPP as the substance, how does the growth estimate read?
A: < -0.25

Q: For KDQSATG, which growth estimate is on record?
A: < -0.25

Q: KDRQNQRLTLGGFRSTWLDW was tested. Which growth estimate did it give?
A: < -0.25

Q: With KDRTGFCRPTRTSRHRS as the substance, how does the growth estimate read?
A: < -0.25

Q: How did the growth estimate turn out when KDSIWGRRSYD was run?
A: < -0.25

Q: How did the growth estimate turn out when KDWLLGYGSTYDFRIRVTSN was run?
A: < -0.25

Q: With KEAFTFAHSHKPLLRFGMVR as the substance, how does the growth estimate read?
A: < -0.25

Q: For KELGEHGAMANLVYKRLTPK, which growth estimate is on record?
A: < -0.25

Q: How did the growth estimate turn out when KELRGVATRSEGKSALTWHL was run?
A: < -0.25

Q: KEPGLWASNRTVYITRCTHG was tested. Which growth estimate did it give?
A: < -0.25

Q: Which growth estimate does the source give for KERVHGSVYRGLEAPHSGRA here?
A: < -0.25

Q: With KESRVTQRKC as the substance, how does the growth estimate read?
A: < -0.25

Q: For KETSNSKVRGSTRGSYSRPV, which growth estimate is on record?
A: < -0.25

Q: Which growth estimate does the source give for KEW here?
A: < -0.25

Q: With KFADGGKKPIP as the substance, how does the growth estimate read?
A: < -0.25

Q: With KFERWWG as the substance, how does the growth estimate read?
A: < -0.25

Q: How did the growth estimate turn out when KFIADHHV was run?
A: < -0.25

Q: With KFICAWNQSSAAPFLREGTP as the substance, how does the growth estimate read?
A: < -0.25

Q: How did the growth estimate turn out when KFLYLRGEESRLIATHKDQH was run?
A: < -0.25

Q: Which growth estimate does the source give for KFRA here?
A: < -0.25

Q: KFRTPEDVNGPRPARRQYAA was tested. Which growth estimate did it give?
A: < -0.25

Q: KFSSYVRRSRV was tested. Which growth estimate did it give?
A: < -0.25

Q: KFVILVCMYCGMSDPGLFGV was tested. Which growth estimate did it give?
A: < -0.25

Q: How did the growth estimate turn out when KFYKTITTKHDT was run?
A: < -0.25

Q: For KGACLSIGVCCNGTSWDRHN, which growth estimate is on record?
A: < -0.25

Q: For KGAGDL, which growth estimate is on record?
A: < -0.25

Q: KGCEVAVFVTGGTTF was tested. Which growth estimate did it give?
A: < -0.25

Q: KGEPLSNRS was tested. Which growth estimate did it give?
A: < -0.25

Q: How did the growth estimate turn out when KGFYAFSGLPAPGRNLSHPA was run?
A: -0.243

Q: How did the growth estimate turn out when KGGAVQNLGGSGNDLRLGSR was run?
A: < -0.25

Q: Which growth estimate does the source give for KGGRPLIPPTVR here?
A: < -0.25

Q: For KGGVGVIDLSVGSLNRINIR, which growth estimate is on record?
A: < -0.25

Q: KGGYDLPLQRGGNASTKVDS was tested. Which growth estimate did it give?
A: < -0.25

Q: For KGIAI, which growth estimate is on record?
A: < -0.25

Q: With KGIRVCIMTYLNCKVRMRPR as the substance, how does the growth estimate read?
A: < -0.25

Q: Which growth estimate does the source give for KGLCFSRQNYQAAQKRGVVP here?
A: < -0.25

Q: How did the growth estimate turn out when KGLLVVIPGVQRYEFAAVLP was run?
A: < -0.25

Q: For KGLYYPENNRGHGLSAFVAA, which growth estimate is on record?
A: < -0.25

Q: With KGNTSADAGRGYRRASQFIG as the substance, how does the growth estimate read?
A: < -0.25

Q: KGPESIKFVPCTPGS was tested. Which growth estimate did it give?
A: < -0.25

Q: With KGPHSESYPVSGPTDNFRRH as the substance, how does the growth estimate read?
A: < -0.25

Q: For KGQSVLIMQLPAVHAGAPWR, which growth estimate is on record?
A: < -0.25

Q: KGSCN was tested. Which growth estimate did it give?
A: < -0.25

Q: Which growth estimate does the source give for KGSYDIATRVLRS here?
A: -0.241

Q: KGTDDSAITRRPVDA was tested. Which growth estimate did it give?
A: < -0.25

Q: Which growth estimate does the source give for KGTRTAELLLGGDSVRNWWA here?
A: < -0.25

Q: KGVDHHCQRSPSAKPGPGNV was tested. Which growth estimate did it give?
A: < -0.25

Q: Which growth estimate does the source give for KGVRAGA here?
A: < -0.25

Q: For KGWSDKGIRIR, which growth estimate is on record?
A: < -0.25

Q: How did the growth estimate turn out when KHC was run?
A: < -0.25

Q: KHDRFRSRGASLPRKNSCVG was tested. Which growth estimate did it give?
A: < -0.25

Q: How did the growth estimate turn out when KHGPLEALYRGGKAIKIQDS was run?
A: < -0.25

Q: How did the growth estimate turn out when KHKVPQEVGHGCRFSVGHPR was run?
A: < -0.25

Q: For KHLH, which growth estimate is on record?
A: < -0.25

Q: With KHLHDHFRCSTWSLYQRSAI as the substance, how does the growth estimate read?
A: < -0.25

Q: How did the growth estimate turn out when KHLSSNPGKD was run?
A: < -0.25

Q: For KHSRIWSPRQASGLGSLGRQ, which growth estimate is on record?
A: < -0.25

Q: Which growth estimate does the source give for KHVSAIRRGMVMAYVRRDLV here?
A: < -0.25

Q: Which growth estimate does the source give for KIITSKWF here?
A: -0.0645

Q: How did the growth estimate turn out when KINYSSLLDNPGSMFKLLER was run?
A: < -0.25

Q: Which growth estimate does the source give for KIPLSYFMYLFGTQISDRPI here?
A: < -0.25

Q: With KIQKTHVRYCSVYHQAARIP as the substance, how does the growth estimate read?
A: < -0.25

Q: For KIRASTFGMSLCEYFGASQL, which growth estimate is on record?
A: < -0.25

Q: KIRIHEYLSSPSSNGAESGC was tested. Which growth estimate did it give?
A: < -0.25

Q: For KIVVSR, which growth estimate is on record?
A: < -0.25

Q: How did the growth estimate turn out when KIVWTDLLWQAGRTSGPITE was run?
A: < -0.25

Q: With KKEGSIITRDRTVCNQSNQS as the substance, how does the growth estimate read?
A: < -0.25

Q: KKEWT was tested. Which growth estimate did it give?
A: < -0.25

Q: How did the growth estimate turn out when KKGRRTAGAARSDVLV was run?
A: < -0.25

Q: How did the growth estimate turn out when KKGVRWRHY was run?
A: < -0.25

Q: KKHAFCRVVIQHVDTEVTSG was tested. Which growth estimate did it give?
A: -0.243

Q: How did the growth estimate turn out when KKIGIVDREGAPHAVP was run?
A: < -0.25

Q: Which growth estimate does the source give for KKILCP here?
A: < -0.25

Q: With KKIVNSI as the substance, how does the growth estimate read?
A: < -0.25

Q: With KKLACLFLSWIV as the substance, how does the growth estimate read?
A: < -0.25

Q: With KKLSWVSYRNIKFRHHPSGV as the substance, how does the growth estimate read?
A: < -0.25

Q: With KKPSCRTRTEGKSVRHGSPW as the substance, how does the growth estimate read?
A: < -0.25

Q: How did the growth estimate turn out when KKPTPPRGGHVI was run?
A: < -0.25

Q: How did the growth estimate turn out when KKRRIGGHSYCPTGLVRA was run?
A: -0.241

Q: KKSSKDLREGVVTPKG was tested. Which growth estimate did it give?
A: < -0.25

Q: With KKTMTPALRICRSPTDASQV as the substance, how does the growth estimate read?
A: < -0.25

Q: With KLASSLSSQSSPMSEP as the substance, how does the growth estimate read?
A: -0.243

Q: With KLCGV as the substance, how does the growth estimate read?
A: < -0.25

Q: With KLDISVLVPPSYRSRCVRKS as the substance, how does the growth estimate read?
A: < -0.25

Q: How did the growth estimate turn out when KLFDRHRFA was run?
A: < -0.25

Q: With KLGDYMVKPTGDPSRAHSAV as the substance, how does the growth estimate read?
A: < -0.25

Q: With KLGLILTTS as the substance, how does the growth estimate read?
A: < -0.25

Q: How did the growth estimate turn out when KLGNAGTRTFNGTRLGPGPE was run?
A: < -0.25

Q: For KLHAFQSIAR, which growth estimate is on record?
A: -0.245

Q: With KLHRSIQAIKDDRLAAPACQ as the substance, how does the growth estimate read?
A: < -0.25

Q: KLHRVGNLNHATDVGT was tested. Which growth estimate did it give?
A: -0.244
